# Measured values published in the supplement of paper PMC12889115.
# Some of the results follow. Values are raw readings; no control value is given beside them.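 First-pass screen: polymyxin B was added at a level that permeabilizes the Salmonella outer membrane while sparing the inner membrane. DMSO wells, with and without polymyxin B, defined maximum growth. Because plates differed from one another, each plate's data were ranked separately and the compounds with the lowest OD600 were carried forward as hits.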
# System: Salmonella enterica serovar Typhimurium SL1344
# Assay: bacterial growth OD600 after 18 h with compound and polymyxin B; higher = more bacterial growth (less inhibition)
# Settings: 50 µM, Mueller-Hinton broth
SMILES,bacterial growth OD600 (polymyxin B 1 µg/mL),bacterial growth OD600 (polymyxin B 0.75 µg/mL)
O=C1CCC(C(=O)N2CCN(C3CCCCC3)C(=O)C2)CN1CCc1ccc(Cl)cc1 (centres undefined),0.897,
O=C(NC1CCCN(CC2CCCCC2)C1)c1ccncc1 (centres undefined),0.891,
C=C(C)CNC(=O)CC1C(=O)NCCN1Cc1ccc(F)cc1Cl (centres undefined),0.789,
COc1cc(CN2CCCC(Nc3ccc(F)cc3)C2)ccc1O (centres undefined),0.932,
Cc1ccc(Oc2ncccc2CNC(=O)c2csc(C)n2)cn1,0.972,
COc1ccc(CN2CCOc3ccc(C(O)Cc4ccccc4)cc3C2)cc1F (centres undefined),,0.005
CSCCC(=O)NC1CC(C)(C)Cc2nc(N3CCC(O)CC3)ncc21 (centres undefined),,0.847
CCC(=O)N(C)C(Cc1ccc(F)cc1F)C1CCN(C(=O)/C=C/c2cc(F)ccc2F)CC1 (centres undefined),,0.51
CCC1CN(CCNC(=O)C(C)c2ccccc2)Cc2cc(OC)ccc2O1 (centres undefined),,0.971
